Data as given in PubChem BioAssay AID504793 (Drosophila RNAi Screening Center, 2011)
The deposit covers about 23,000 reagents; shown is a random part of those with a known target gene and a result. Over the whole deposit, 62 (0.27%) got an active call. 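Calls come from follow-up tests whose scores are not deposited, so confirmed genes may have low counts here; counts are not normalised per plate.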 Raw values are not corrected between plates. Entries without a mark were called inactive. Names joined by + are all predicted targets of the reagent.

- Test: 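Knock-downs allowing continued mitosis even though DNA is damaged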 (primary screen)
- Cells: Drosophila S2R+ cells
- Reagent: long dsRNA against Drosophila genes, about 0.25 µg dsRNA per well
- Duration: 4 days of dsRNA, then 4 hours of drug before read-out
- Conditions: doxorubicin 0.5 µM for 4 hours to cause double-strand breaks, in cells also given a low, harmless dose of dsRNA against nbs to sensitise the assay
- Measured: 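Mitotic index as the number of phospho-histone H3-positive cells in each well following doxorubicin, given as raw counts without normalisation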
- Reading the numbers: mitotic cells: higher = more cells in mitosis, weaker G2 arrest
- Active means: 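Genes are called active only when high mitotic counts were reproduced with independent dsRNAs and mitosis was checked for delay without damage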
- Calls: active = confirmed in follow-up tests; inactive = not confirmed

CG5543 [DRSC04511] | mitotic cells, replicate 1 = 6
Pfdn4 [DRSC09761] | mitotic cells, replicate 1 = 9
Pfdn4 [DRSC26736] | mitotic cells, replicate 1 = 1
RPA1 [DRSC16830] | mitotic cells, replicate 1 = 44 (active)
Lasp [DRSC10379] | mitotic cells, replicate 1 = 7
Lasp [DRSC23555] | mitotic cells, replicate 1 = 4
Polr3K + Tcs1 [DRSC05988] | mitotic cells, replicate 1 = 6
Polr3K + Tcs1 [DRSC26790] | mitotic cells, replicate 1 = 4
CG14369 [DRSC14831] | mitotic cells, replicate 1 = 3
CG14369 [DRSC25713] | mitotic cells, replicate 1 = 5
VAChT + ChAT [DRSC13312] | mitotic cells, replicate 1 = 8
CG6724 [DRSC02983] | mitotic cells, replicate 1 = 3
mbf1 [DRSC11365] | mitotic cells, replicate 1 = 7
CG17233 [DRSC23352] | mitotic cells, replicate 1 = 2
Obp99d [DRSC15046] | mitotic cells, replicate 1 = 14
prc [DRSC11385] | mitotic cells, replicate 1 = 3
GAPcenA [DRSC10771] | mitotic cells, replicate 1 = 8
lmgA + lmgB [DRSC03566] | mitotic cells, replicate 1 = 4
lmgA + lmgB [DRSC24454] | mitotic cells, replicate 1 = 9
Patj [DRSC08712] | mitotic cells, replicate 1 = 2
Patj [DRSC28714] | mitotic cells, replicate 1 = 5
Ser8 [DRSC06891] | mitotic cells, replicate 1 = 8
Ser8 [DRSC25468] | mitotic cells, replicate 1 = 5

Part of the list above, reformatted.
gene | DRSC id | mitotic cells, replicate 1
Lasp | DRSC23555 | 4
Polr3K + Tcs1 | DRSC05988 | 6
